Reference: the supplement of paper PMC10849652
The list shows a part of the results.

By UniProt entry, the sequences of proteins in these tests, tags left out. Where a name states a change or a piece, a line headed by the entry shows the natural chain unless it says otherwise.
UniProt Q07065: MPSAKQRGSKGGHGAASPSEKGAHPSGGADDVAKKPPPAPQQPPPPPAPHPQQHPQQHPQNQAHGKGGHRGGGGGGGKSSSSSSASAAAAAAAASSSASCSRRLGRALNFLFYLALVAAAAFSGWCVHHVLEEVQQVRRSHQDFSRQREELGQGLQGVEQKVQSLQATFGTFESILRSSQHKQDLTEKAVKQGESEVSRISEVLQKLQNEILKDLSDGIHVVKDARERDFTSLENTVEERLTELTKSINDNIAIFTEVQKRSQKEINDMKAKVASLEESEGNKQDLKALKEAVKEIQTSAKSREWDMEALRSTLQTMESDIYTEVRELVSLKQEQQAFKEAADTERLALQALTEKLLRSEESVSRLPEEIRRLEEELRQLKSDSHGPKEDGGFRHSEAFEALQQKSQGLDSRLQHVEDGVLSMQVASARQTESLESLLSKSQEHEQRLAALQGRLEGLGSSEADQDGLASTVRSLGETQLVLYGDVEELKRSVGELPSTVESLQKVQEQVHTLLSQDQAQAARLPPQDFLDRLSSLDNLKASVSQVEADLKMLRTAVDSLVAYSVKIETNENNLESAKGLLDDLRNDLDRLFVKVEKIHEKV
UniProt O75153: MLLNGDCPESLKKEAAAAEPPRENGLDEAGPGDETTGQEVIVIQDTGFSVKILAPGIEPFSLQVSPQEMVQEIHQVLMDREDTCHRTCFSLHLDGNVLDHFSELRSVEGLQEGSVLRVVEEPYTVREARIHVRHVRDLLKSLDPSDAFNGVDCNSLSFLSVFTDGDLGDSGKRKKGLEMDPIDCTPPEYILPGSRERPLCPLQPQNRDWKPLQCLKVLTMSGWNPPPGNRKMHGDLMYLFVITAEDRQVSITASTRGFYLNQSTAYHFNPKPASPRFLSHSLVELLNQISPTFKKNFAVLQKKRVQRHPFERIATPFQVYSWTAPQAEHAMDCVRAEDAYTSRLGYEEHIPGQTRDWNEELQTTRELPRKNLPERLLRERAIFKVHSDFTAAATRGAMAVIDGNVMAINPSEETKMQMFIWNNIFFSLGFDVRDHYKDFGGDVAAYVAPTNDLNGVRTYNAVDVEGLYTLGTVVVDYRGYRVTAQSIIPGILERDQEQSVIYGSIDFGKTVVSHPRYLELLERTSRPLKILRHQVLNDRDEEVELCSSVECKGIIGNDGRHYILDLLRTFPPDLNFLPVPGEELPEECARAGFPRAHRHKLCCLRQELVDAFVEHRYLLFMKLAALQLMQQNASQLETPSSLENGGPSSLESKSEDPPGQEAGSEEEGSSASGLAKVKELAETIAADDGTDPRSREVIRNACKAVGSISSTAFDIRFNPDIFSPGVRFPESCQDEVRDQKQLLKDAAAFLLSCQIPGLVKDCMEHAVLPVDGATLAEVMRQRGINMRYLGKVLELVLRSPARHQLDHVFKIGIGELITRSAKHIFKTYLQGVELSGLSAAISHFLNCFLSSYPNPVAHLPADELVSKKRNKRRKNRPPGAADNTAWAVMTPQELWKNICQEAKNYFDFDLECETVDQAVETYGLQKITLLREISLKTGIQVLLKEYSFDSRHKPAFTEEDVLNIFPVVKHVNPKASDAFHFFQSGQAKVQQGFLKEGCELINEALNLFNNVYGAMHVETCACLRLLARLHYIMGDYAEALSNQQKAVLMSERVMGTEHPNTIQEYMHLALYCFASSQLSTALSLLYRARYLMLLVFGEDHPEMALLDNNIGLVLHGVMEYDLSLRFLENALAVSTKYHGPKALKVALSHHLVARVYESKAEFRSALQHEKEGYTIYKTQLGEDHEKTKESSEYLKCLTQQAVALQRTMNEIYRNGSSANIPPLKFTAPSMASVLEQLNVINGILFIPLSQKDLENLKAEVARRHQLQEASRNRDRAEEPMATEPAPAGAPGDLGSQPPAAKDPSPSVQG
UniProt O75122: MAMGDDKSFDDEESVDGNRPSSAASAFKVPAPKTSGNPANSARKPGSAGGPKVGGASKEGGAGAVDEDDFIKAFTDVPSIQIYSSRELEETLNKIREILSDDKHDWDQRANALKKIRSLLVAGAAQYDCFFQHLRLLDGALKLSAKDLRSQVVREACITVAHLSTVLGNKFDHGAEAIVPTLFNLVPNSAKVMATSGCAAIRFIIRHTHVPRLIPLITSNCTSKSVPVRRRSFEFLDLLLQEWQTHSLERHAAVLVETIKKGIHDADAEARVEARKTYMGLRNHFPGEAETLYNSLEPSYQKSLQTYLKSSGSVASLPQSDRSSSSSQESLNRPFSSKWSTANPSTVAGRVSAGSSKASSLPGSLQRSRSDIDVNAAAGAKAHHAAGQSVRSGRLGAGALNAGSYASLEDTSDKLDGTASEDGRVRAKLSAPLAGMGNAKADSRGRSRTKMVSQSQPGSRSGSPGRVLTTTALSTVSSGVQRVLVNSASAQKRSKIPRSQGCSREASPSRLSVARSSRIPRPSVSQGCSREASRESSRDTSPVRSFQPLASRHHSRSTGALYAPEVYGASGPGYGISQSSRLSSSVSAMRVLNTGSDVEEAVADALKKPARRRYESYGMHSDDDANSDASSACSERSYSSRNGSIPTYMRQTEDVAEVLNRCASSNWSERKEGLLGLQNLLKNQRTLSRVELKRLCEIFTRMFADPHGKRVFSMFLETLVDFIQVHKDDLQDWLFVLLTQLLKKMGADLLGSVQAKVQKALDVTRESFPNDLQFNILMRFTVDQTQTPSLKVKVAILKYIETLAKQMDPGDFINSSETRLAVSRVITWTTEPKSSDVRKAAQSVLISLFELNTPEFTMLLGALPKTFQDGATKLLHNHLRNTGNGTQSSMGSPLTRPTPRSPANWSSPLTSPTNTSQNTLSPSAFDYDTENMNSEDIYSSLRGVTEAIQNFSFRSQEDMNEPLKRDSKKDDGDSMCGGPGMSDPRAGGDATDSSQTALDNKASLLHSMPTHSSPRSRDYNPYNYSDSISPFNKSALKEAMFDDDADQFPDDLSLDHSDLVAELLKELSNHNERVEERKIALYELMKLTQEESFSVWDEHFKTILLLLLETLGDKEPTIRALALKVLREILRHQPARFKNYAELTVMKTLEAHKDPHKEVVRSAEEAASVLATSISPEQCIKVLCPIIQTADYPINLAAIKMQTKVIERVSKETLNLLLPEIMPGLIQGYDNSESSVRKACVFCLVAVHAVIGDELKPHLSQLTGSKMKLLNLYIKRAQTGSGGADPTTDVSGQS
UniProt Q9UBY8, whole entry, looked up: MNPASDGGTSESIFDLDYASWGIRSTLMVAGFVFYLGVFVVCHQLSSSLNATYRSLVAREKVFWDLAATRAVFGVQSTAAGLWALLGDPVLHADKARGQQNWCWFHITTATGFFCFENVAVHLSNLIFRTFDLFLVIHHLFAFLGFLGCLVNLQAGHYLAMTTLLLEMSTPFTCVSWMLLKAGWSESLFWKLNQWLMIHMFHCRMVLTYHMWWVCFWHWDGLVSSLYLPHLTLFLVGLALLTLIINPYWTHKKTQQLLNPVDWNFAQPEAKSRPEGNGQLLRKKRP
UniProt O96005: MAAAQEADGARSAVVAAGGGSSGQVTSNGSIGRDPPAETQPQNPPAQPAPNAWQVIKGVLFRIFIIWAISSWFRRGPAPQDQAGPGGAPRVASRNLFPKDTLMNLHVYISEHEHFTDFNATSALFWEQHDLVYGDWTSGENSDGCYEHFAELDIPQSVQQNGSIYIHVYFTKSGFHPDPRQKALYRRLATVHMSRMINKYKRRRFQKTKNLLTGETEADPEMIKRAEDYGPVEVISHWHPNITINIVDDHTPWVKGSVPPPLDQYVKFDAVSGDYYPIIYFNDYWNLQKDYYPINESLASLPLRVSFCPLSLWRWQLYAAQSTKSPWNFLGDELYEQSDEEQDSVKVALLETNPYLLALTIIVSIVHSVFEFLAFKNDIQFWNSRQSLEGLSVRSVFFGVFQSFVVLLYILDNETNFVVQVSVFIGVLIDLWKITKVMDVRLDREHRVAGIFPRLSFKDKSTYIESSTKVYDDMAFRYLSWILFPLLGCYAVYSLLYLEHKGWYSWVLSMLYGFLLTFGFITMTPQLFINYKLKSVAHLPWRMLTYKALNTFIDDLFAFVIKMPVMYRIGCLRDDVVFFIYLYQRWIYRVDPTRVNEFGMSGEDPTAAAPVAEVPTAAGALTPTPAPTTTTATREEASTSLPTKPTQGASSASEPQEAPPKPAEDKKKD
UniProt Q96S66: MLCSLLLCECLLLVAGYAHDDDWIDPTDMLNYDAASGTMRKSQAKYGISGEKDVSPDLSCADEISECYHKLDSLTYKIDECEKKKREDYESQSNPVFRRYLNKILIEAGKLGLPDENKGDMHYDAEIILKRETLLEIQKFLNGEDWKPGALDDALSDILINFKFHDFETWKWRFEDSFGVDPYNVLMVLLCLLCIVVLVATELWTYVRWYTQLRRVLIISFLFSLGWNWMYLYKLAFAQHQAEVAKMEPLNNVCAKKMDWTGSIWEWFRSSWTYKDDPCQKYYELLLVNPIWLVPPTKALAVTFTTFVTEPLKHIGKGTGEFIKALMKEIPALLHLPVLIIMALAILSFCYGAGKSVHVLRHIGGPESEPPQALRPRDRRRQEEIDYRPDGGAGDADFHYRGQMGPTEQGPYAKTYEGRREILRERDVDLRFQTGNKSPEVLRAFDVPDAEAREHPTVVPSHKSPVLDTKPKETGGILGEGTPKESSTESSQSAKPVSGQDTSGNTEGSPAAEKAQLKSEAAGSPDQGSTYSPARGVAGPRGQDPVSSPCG
UniProt Q86X52: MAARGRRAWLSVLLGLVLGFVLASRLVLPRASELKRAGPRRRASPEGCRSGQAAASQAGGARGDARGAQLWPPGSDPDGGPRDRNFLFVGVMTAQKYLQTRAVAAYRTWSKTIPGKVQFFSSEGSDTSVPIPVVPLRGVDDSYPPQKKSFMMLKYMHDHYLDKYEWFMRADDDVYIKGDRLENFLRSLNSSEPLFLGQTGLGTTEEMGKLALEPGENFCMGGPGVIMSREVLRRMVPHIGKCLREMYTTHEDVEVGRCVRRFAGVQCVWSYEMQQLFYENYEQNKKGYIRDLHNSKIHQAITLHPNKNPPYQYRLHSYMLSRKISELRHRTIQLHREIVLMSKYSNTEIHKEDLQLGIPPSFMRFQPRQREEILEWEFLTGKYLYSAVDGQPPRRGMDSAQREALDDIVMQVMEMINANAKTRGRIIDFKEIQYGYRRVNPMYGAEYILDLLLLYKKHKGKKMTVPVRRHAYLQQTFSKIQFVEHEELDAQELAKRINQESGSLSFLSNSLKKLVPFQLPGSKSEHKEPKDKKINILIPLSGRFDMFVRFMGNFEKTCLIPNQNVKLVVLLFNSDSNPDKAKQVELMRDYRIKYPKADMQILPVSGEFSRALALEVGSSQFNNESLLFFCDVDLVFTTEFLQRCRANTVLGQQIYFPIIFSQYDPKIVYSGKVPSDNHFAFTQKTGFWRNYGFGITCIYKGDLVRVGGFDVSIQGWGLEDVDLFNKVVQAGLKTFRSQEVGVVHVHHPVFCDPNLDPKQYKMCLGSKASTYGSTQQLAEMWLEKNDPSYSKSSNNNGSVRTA
UniProt Q9UHD1: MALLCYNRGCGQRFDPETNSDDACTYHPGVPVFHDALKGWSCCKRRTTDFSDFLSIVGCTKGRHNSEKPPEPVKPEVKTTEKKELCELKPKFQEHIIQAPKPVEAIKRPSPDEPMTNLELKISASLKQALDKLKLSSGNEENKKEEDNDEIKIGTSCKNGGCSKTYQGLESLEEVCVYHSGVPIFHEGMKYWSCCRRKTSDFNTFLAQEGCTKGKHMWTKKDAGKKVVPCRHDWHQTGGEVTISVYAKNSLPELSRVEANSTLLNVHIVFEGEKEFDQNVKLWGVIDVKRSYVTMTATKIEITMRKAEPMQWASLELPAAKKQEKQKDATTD
UniProt P62633: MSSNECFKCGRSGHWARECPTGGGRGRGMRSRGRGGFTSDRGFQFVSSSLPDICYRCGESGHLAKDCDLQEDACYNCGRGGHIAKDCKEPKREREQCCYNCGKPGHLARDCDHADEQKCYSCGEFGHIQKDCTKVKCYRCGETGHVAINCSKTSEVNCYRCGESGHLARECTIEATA
UniProt Q96KA5: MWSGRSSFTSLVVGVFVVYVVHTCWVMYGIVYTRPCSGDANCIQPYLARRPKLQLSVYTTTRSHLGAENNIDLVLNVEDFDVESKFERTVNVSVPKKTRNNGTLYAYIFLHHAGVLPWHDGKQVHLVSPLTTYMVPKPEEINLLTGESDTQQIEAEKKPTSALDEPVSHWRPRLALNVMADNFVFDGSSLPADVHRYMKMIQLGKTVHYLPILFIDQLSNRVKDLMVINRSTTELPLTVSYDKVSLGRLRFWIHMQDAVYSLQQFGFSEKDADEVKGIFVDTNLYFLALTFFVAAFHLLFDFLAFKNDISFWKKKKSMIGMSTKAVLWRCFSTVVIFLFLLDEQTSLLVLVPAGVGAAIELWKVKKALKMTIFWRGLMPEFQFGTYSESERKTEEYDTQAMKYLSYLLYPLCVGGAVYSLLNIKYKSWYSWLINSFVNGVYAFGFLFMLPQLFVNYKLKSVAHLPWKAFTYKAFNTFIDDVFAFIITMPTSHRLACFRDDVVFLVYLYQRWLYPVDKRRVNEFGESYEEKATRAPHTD

Tests used:
Test in all cases: log2 fold change, soluble protein after heating vs DMSO (PISA); higher = thermal stabilisation; K562 lysate, 10 uM; active = over 0.2 and 3.5 SD of the protein, either way, in both replicates (recomputed)
lapatinib = compound: CS(=O)(=O)CCNCc1ccc(-c2ccc3ncnc(Nc4ccc(OCc5cccc(F)c5)c(Cl)c4)c3c2)o1 [lapatinib]
Outline: (§1)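 Following dounce homogenisation of K562 pellets in PBS pH 7.4 with 1 mM MgCl2, crude extract at 1 mg/mL protein was incubated for 30 min with 10 μM compound. Aliquots were then heated for 3 min over 48°C-58°C and pooled, NP-40 was added to 0.5% at 4°C, and soluble protein was recovered as the supernatant at 21,000xg for 90 min. Channel-sum-equalised TMTpro 16plex LC-MS/MS quantified this protein. Each value, from duplicates, is a log-two fold change in thermal stability relative to solvent controls.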

pictilisib = compound: CS(=O)(=O)N1CCN(Cc2cc3nc(-c4cccc5[nH]ncc45)nc(N4CCOCC4)c3s2)CC1 [pictilisib]
Outline: as §1

crizotinib = compound: C[C@@H](Oc1cc(-c2cnn(C3CCNCC3)c2)cnc1N)c1c(Cl)ccc(F)c1Cl [crizotinib]
Outline: as §1

[1] = compound: C[C@H](C1=CC=C(C=C1)C(=O)NC2=C3C=CNC3=NC=C2)N
Outline: as §1

duvelisib = compound: C[C@H](Nc1ncnc2nc[nH]c12)c1cc2cccc(Cl)c2c(=O)n1-c1ccccc1 [duvelisib]
Outline: as §1

gandotinib = compound: Cc1cc(Nc2cc(CN3CCOCC3)c3nc(C)c(Cc4ccc(Cl)cc4F)n3n2)n[nH]1 [gandotinib]
Outline: as §1

tozasertib = compound: Cc1cc(Nc2cc(N3CCN(C)CC3)nc(Sc3ccc(NC(=O)C4CC4)cc3)n2)n[nH]1 [tozasertib]
Outline: as §1

doramapimod = compound: Cc1ccc(-n2nc(C(C)(C)C)cc2NC(=O)Nc2ccc(OCCN3CCOCC3)c3ccccc23)cc1 [doramapimod]
Outline: as §1

bafetinib = compound: Cc1ccc(NC(=O)c2ccc(CN3CC[C@H](N(C)C)C3)c(C(F)(F)F)c2)cc1Nc1nccc(-c2cncnc2)n1 [bafetinib]
Outline: as §1

[2] = compound: Cc1cccc(CC(=O)N2CCc3c2ccc(-c2cn(C)c4ncnc(N)c24)c3F)n1
Outline: as §1

dasatinib = compound: Cc1nc(Nc2ncc(C(=O)Nc3c(C)cccc3Cl)s2)cc(N2CCN(CCO)CC2)n1 [dasatinib]
Outline: as §1

[3] = compound: Cn1cc(-c2ccc3c(c2)CCN3C(=O)Cc2cccc(C(F)(F)F)c2)c2c(N)ncnc21
Outline: as §1

quisinostat = compound: Cn1cc(CNCC2CCN(c3ncc(C(=O)NO)cn3)CC2)c2ccccc21 [quisinostat]
Outline: as §1

[4] = compound: NC(=O)Nc1cc(-c2cccc(F)c2)sc1C(=O)N[C@H]1CCCNC1
Outline: as §1

[5] = compound: NC(=O)c1cnc(N[C@@H]2CCCC[C@@H]2N)nc1Nc1cccc(-n2nccn2)c1
Outline: as §1

[6] = compound: NC1(c2ccc(-c3nc4ccn5c(=O)[nH]nc5c4cc3-c3ccccc3)cc2)CCC1
Outline: as §1

nilotinib = compound: Cc1cn(-c2cc(NC(=O)c3ccc(C)c(Nc4nccc(-c5cccnc5)n4)c3)cc(C(F)(F)F)c2)cn1 [nilotinib]
Outline: as §1

[7] = compound: Cc1nc(Nc2n[nH]c3c2CN(C(=O)N[C@H](CN(C)C)c2ccccc2)C3(C)C)c2sccc2n1
Outline: as §1

[8] = compound: Cc1ncc(-c2ccnc(Nc3ccc(S(C)(=O)=O)cc3)n2)n1C(C)C
Outline: as §1

tipifarnib = compound: Cn1cncc1[C@@](N)(c1ccc(Cl)cc1)c1ccc2c(c1)c(-c1cccc(Cl)c1)cc(=O)n2C [tipifarnib]
Outline: as §1

Measured: log2 fold change

CKAP4 (UniProt Q07065)
inactive: lapatinib -0.014 | pictilisib -0.021 | crizotinib 0.083 | [1] 0.353 | duvelisib 0.005 | gandotinib 0.224 | tozasertib -0.148 | doramapimod 0.061 | bafetinib 0.082 | [2] -0.68 | dasatinib 0.118 | [3] -0.036 | quisinostat 0.098 | [4] -0.079 | [5] -0.008

CHCHD6 (UniProt Q9BRQ6)
inactive: lapatinib -0.168 | pictilisib -0.017 | crizotinib -0.01 | [1] -0.093 | duvelisib 0.015 | gandotinib 0.062 | tozasertib -0.055 | doramapimod 0.003 | bafetinib 0.074 | [2] 0.064 | dasatinib -0.008 | [3] -0.078 | quisinostat 0.014 | [4] 0.067 | [5] 0.097 | [6] 0.134

CHURC1 isoform 2 (UniProt Q8WUH1)
inactive: lapatinib 0.012 | pictilisib 0.043 | crizotinib -0.047 | [1] 0.026 | duvelisib 0.049 | gandotinib -0.014 | tozasertib -0.032 | doramapimod -0.01 | bafetinib -0.019 | [2] -0.001 | nilotinib 0.055 | [7] -0.029 | dasatinib 0.016 | [8] -0.09 | [3] -0.001 | quisinostat -0.074 | tipifarnib 0.027 | [4] 0.018 | [5] -0.041 | [6] -0.083

CHST2 (UniProt Q9Y4C5)
inactive: lapatinib 0.054 | pictilisib -0.114 | crizotinib -0.118 | [1] -0.106 | duvelisib -0.106 | gandotinib 0.098 | doramapimod 0.13 | bafetinib 0.079 | [2] 0.371 | dasatinib 0.25 | [3] -0.235 | quisinostat 0.127 | [4] -0.172 | [5] 0.104

CHCHD10 (UniProt Q8WYQ3)
inactive: lapatinib 0.032 | pictilisib -0.106 | [1] 0.133 | duvelisib 0.054 | gandotinib -0.131 | tozasertib 0.053 | bafetinib 0.162 | [2] -0.068 | nilotinib -0.041 | [7] 0.049 | dasatinib 0.016 | [8] -0.028 | [3] -0.03 | tipifarnib -0.088 | [5] -0.037 | [6] -0.019

CKMT1A (UniProt P12532)
inactive: lapatinib 0.007 | pictilisib 0.042 | crizotinib 0.006 | [1] -0.021 | duvelisib 0.041 | gandotinib 0.056 | tozasertib 0.003 | doramapimod -0.02 | bafetinib 0.116 | [2] 0.004 | nilotinib 0.008 | [7] -0.01 | dasatinib -0.018 | [8] 0.033 | [3] 0.029 | quisinostat -0.054 | tipifarnib -0.025 | [4] 0.014 | [5] -0.04 | [6] 0.028

CHMP4A (UniProt H0YIN6)
inactive: lapatinib -0.078 | pictilisib -0.071 | crizotinib -0.211 | [1] -0.091 | duvelisib 0 | gandotinib 0.451 | doramapimod -0.059 | bafetinib -0.098 | [2] 0.325 | dasatinib 0.294 | [3] -0.06 | quisinostat -0.502 | [4] 0.041 | [5] 0.066

Four successive records out of the list so far, for reference:
CHURC1 isoform 2 (UniProt Q8WUH1)
inactive: lapatinib 0.012 | pictilisib 0.043 | crizotinib -0.047 | [1] 0.026 | duvelisib 0.049 | gandotinib -0.014 | tozasertib -0.032 | doramapimod -0.01 | bafetinib -0.019 | [2] -0.001 | nilotinib 0.055 | [7] -0.029 | dasatinib 0.016 | [8] -0.09 | [3] -0.001 | quisinostat -0.074 | tipifarnib 0.027 | [4] 0.018 | [5] -0.041 | [6] -0.083

CHST2 (UniProt Q9Y4C5)
inactive: lapatinib 0.054 | pictilisib -0.114 | crizotinib -0.118 | [1] -0.106 | duvelisib -0.106 | gandotinib 0.098 | doramapimod 0.13 | bafetinib 0.079 | [2] 0.371 | dasatinib 0.25 | [3] -0.235 | quisinostat 0.127 | [4] -0.172 | [5] 0.104

CHCHD10 (UniProt Q8WYQ3)
inactive: lapatinib 0.032 | pictilisib -0.106 | [1] 0.133 | duvelisib 0.054 | gandotinib -0.131 | tozasertib 0.053 | bafetinib 0.162 | [2] -0.068 | nilotinib -0.041 | [7] 0.049 | dasatinib 0.016 | [8] -0.028 | [3] -0.03 | tipifarnib -0.088 | [5] -0.037 | [6] -0.019

CKMT1A (UniProt P12532)
inactive: lapatinib 0.007 | pictilisib 0.042 | crizotinib 0.006 | [1] -0.021 | duvelisib 0.041 | gandotinib 0.056 | tozasertib 0.003 | doramapimod -0.02 | bafetinib 0.116 | [2] 0.004 | nilotinib 0.008 | [7] -0.01 | dasatinib -0.018 | [8] 0.033 | [3] 0.029 | quisinostat -0.054 | tipifarnib -0.025 | [4] 0.014 | [5] -0.04 | [6] 0.028

Next part.

CLUH (UniProt O75153)
inactive: lapatinib -0.014 | crizotinib -0.057 | [1] -0.012 | duvelisib 0.147 | gandotinib 0.004 | tozasertib -0.005 | doramapimod -0.007 | bafetinib -0.044 | [2] 0.032 | nilotinib 0.009 | [7] 0.075 | dasatinib -0.025 | [8] -0.007 | [3] 0.002 | quisinostat -0.043 | tipifarnib 0.007 | [4] 0.039 | [5] -0.006 | [6] 0.004

CLASP2 isoform 3 (UniProt O75122)
active: [2] 0.247
inactive: lapatinib -0.008 | crizotinib -0.018 | [1] -0.172 | duvelisib -0.015 | gandotinib 0.077 | tozasertib 0.015 | doramapimod 0.041 | bafetinib -0.021 | nilotinib 0.013 | [7] -0.004 | dasatinib -0.024 | [8] 0.02 | [3] 0.021 | quisinostat -0.042 | tipifarnib -0.063 | [4] -0.07 | [5] -0.007 | [6] 0.032

CLN8 (UniProt Q9UBY8)
inactive: lapatinib 0.046 | crizotinib 0.004 | [1] -0.071 | duvelisib 0.038 | gandotinib 0.069 | tozasertib -0.241 | doramapimod -0.023 | bafetinib 0.027 | [2] 0.077 | nilotinib -0.106 | [7] 0.127 | dasatinib -0.015 | [8] 0.079 | [3] -0.002 | quisinostat 0.043 | tipifarnib -0.066 | [4] 0.035 | [5] -0.053 | [6] -0.094

CLPTM1 (UniProt O96005)
inactive: lapatinib 0.034 | crizotinib 0.005 | [1] -0.07 | duvelisib -0.038 | gandotinib 0.033 | tozasertib -0.005 | doramapimod -0.068 | bafetinib -0.053 | [2] 0.083 | nilotinib -0.016 | [7] -0.008 | dasatinib 0.042 | [8] -0.035 | [3] 0 | quisinostat -0.06 | tipifarnib -0.088 | [4] 0.004 | [5] -0.034 | [6] -0.009

CLCC1 (UniProt Q96S66)
inactive: lapatinib -0.024 | crizotinib 0.058 | [1] -0.072 | duvelisib -0.021 | gandotinib 0.063 | tozasertib -0.016 | doramapimod -0.022 | bafetinib -0.033 | [2] 0.037 | nilotinib 0.016 | [7] 0.007 | dasatinib 0.039 | [8] -0.007 | [3] 0.001 | quisinostat 0.058 | tipifarnib -0.021 | [4] -0.035 | [5] -0.009 | [6] -0.004

CHSY1 (UniProt Q86X52)
inactive: lapatinib 0.173 | pictilisib -0.015 | [1] -0.069 | duvelisib 0.045 | gandotinib 0.164 | bafetinib -0.209 | [2] 0.187 | nilotinib -0.228 | [7] 0.082 | dasatinib -0.092 | [8] -0.326 | [3] -0.024 | tipifarnib 0.061 | [5] -0.141 | [6] 0.043

CISD2 (UniProt Q8N5K1)
inactive: lapatinib -0.036 | pictilisib -0.036 | crizotinib 0.022 | [1] -0.032 | duvelisib -0.01 | gandotinib 0.061 | tozasertib 0.01 | doramapimod -0.026 | bafetinib 0.025 | [2] 0.021 | nilotinib 0.049 | [7] -0.038 | dasatinib 0.019 | [8] 0.02 | [3] -0.013 | quisinostat -0.005 | tipifarnib -0.025 | [4] -0.013 | [5] 0.074 | [6] -0.005

CHORDC1 (UniProt Q9UHD1)
inactive: lapatinib -0.001 | pictilisib 0.009 | crizotinib 0.022 | [1] 0.18 | duvelisib 0.006 | gandotinib -0.011 | tozasertib 0.022 | doramapimod -0.028 | bafetinib 0.022 | [2] -0.031 | nilotinib 0.024 | [7] -0.003 | dasatinib 0.016 | [8] 0.034 | [3] 0.008 | quisinostat 0.018 | tipifarnib 0.021 | [4] -0.015 | [5] 0 | [6] -0.005

CNBP isoform 4 (UniProt P62633)
inactive: lapatinib 0.058 | pictilisib 0.02 | crizotinib 0.002 | [1] -0.022 | duvelisib -0.017 | gandotinib 0.022 | tozasertib 0.033 | doramapimod 0.205 | bafetinib 0.073 | [2] -0.032 | nilotinib 0.132 | [7] 0.124 | dasatinib -0.168 | [8] 0.1 | [3] -0.109 | quisinostat 0.118 | tipifarnib -0.009 | [4] -0.128 | [5] -0.041 | [6] -0.084

CLPTM1L (UniProt Q96KA5)
active: gandotinib -0.233
inactive: lapatinib -0.095 | crizotinib -0.021 | [1] -0.092 | duvelisib -0.049 | tozasertib 0.004 | doramapimod -0.098 | bafetinib -0.064 | [2] 0.137 | nilotinib 0.037 | [7] -0.005 | dasatinib 0.006 | [8] 0 | [3] -0.016 | quisinostat 0.011 | tipifarnib -0.026 | [4] 0.046 | [5] 0.016 | [6] -0.069

CLUH, A0A494C0R8
active: [1] 0.557
inactive: lapatinib -0.052 | crizotinib -0.019 | duvelisib 0.154 | gandotinib -0.108 | tozasertib -0.025 | doramapimod -0.026 | bafetinib -0.091 | [2] -0.14 | nilotinib 0.026 | [7] 0.146 | dasatinib 0.028 | [8] -0.022 | [3] 0.015 | quisinostat -0.165 | tipifarnib -0.033 | [4] 0.022 | [5] -0.045 | [6] 0.046
